{
  "sequences": {"note": "Protein sequences, listed by entry. Tags and fused reporters are not part of them. Lines headed by an entry give the natural chain unless they say otherwise; changes in a name come on top.", "UniProt P0ACF0": "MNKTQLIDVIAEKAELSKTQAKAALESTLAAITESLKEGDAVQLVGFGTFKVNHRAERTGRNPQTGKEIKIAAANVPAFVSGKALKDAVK"},
  "source": "paper PMC7493962",
  "about": "“Structure-based inhibitors targeting the alpha-helical domain of the Spiroplasma melliferum histone-like HU protein” (Scientific Reports, 2020)",
  "molecular_target": "HUEc (Escherichia coli) (UniProt P0ACF0)",
  "experiment": "EMSA",
  "conditions": "no BDF inhibitor; EMSA: 20 mM Tris-HCl pH 8.0, 150 mM NaCl, 7% glycerol, 10 nM DNA, 10 min, temperature not stated; recombinant protein; label: 5'-HEX on strand 1",
  "note": "Construct, isoform or probe ends are uncertain for at least one entry. At least one verdict rests on a figure or table, not on a statement of the authors.",
  "data": [
    {"sequence": "AGTCTAGAGTGCAAGTTGAGTCCTT / AAGGACTCAACTGCACTCTAGACT [DS24a (24a)]", "values": [
      {"measurement": "binding result", "result": "binds"}
    ]}
  ]
}
